{
  "source": "patent US20260053882A1",
  "about": "(TRUSTEES OF PRINCETON UNIVERSITY, published 2026)",
  "key": {"[1]": {"molecular_target": "T1, His6-SpyTag003 (SpyTag003-Cys, His6-SpyTag003-SUMO-Cys, unlabeled)", "T1 construct": "also called SpyTag003 probe; peptide probe", "T1 chain": "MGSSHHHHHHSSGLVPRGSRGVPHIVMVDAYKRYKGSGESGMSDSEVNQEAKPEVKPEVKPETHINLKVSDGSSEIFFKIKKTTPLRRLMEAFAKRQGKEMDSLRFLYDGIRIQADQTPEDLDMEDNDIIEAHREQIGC", "assay": "in vitro reaction overnight at 37° C., SDS-PAGE and western blot"}, "[2]": {"molecular_target": "T1, His6-SpyTag003 (SpyTag003-Cys, …)", "assay": "split-site screen 82-83, in vitro reaction, western blot"}, "[3]": {"molecular_target": "T1, His6-SpyTag003 (SpyTag003-Cys, …)", "assay": "split-site screen 42-43, in vitro reaction, western blot"}},
  "data": [
    {"binder": "FRB-NpuC^cage-SpyC^74-113 (FRB-NpuC^cage-SpyC^74-113-αEGFR-Myc) (other) GRVAILWHEMWHEGLEEASRLYFGERNVKGMFEVLEPLHAMMERGPQTLKETSFNQAYGRDLMEAQEWCRKYMKSGNVKDLLQAWDLYYHVFRRISGNGNGGEQEVFEYCLEDGSLIRATKDHKFMTVDGQMLPIDEIFERELDLMRVDNLPNGSGGENLYFQGENLYFQGGSGGIKIATRKYLGKQNVYDIGVERDHNFALKNGFIASNCFVETAAPDGYEVATPIEFTVNEDGQVTVDGEATEGDAHTGSTSGSDLGKKLLEAARAGQDDEVRILMANGADVNADDTWGWTPLHLAAYQGHLEIVEVLLKNGADVNAYDYIGWTPLHLAADGHLEIVEVLLKNGADVNASDYIGDTPLHLAAHNGHLEIVEVLLKHGADVNAQDKFGKTAFDISIDNGNEDLAEILQKLNEQKLISEEDL", "values": [
      {"measurement": "binding result", "setting": "[1]", "value": "no binding (tested: 1 µM fragment, 2 µM probe)"}
    ]},
    {"binder": "FRB-NpuC^cage-SpyC^83-113 (FRB-NpuC^cage-SpyC^83-113-αEGFR-Myc) (other) GRVAILWHEMWHEGLEEASRLYFGERNVKGMFEVLEPLHAMMERGPQTLKETSFNQAYGRDLMEAQEWCRKYMKSGNVKDLLQAWDLYYHVFRRISGNGNGGEQEVFEYCLEDGSLIRATKDHKFMTVDGQMLPIDEIFERELDLMRVDNLPNGSGGENLYFQGENLYFQGGSGGIKIATRKYLGKQNVYDIGVERDHNFALKNGFIASNCYEVATPIEFTVNEDGQVTVDGEATEGDAHTGSTSGSDLGKKLLEAARAGQDDEVRILMANGADVNADDTWGWTPLHLAAYQGHLEIVEVLLKNGADVNAYDYIGWTPLHLAADGHLEIVEVLLKNGADVNASDYIGDTPLHLAAHNGHLEIVEVLLKHGADVNAQDKFGKTAFDISIDNGNEDLAEILQKLNEQKLISEEDL", "values": [
      {"measurement": "binding result", "setting": "[2]", "value": "no binding"}
    ]},
    {"binder": "FRB-NpuC^cage-SpyC^43-113 (FRB-NpuC^cage-SpyC^43-113-αEGFR-Myc) (other) GRVAILWHEMWHEGLEEASRLYFGERNVKGMFEVLEPLHAMMERGPQTLKETSFNQAYGRDLMEAQEWCRKYMKSGNVKDLLQAWDLYYHVFRRISGNGNGGEQEVFEYCLEDGSLIRATKDHKFMTVDGQMLPIDEIFERELDLMRVDNLPNGSGGENLYFQGENLYFQGGSGGIKIATRKYLGKQNVYDIGVERDHNFALKNGFIASNCMELRDSSGKTISTWISDGHVKDFYLYPGKYTFVETAAPDGYEVATPIEFTVNEDGQVTVDGEATEGDAHTGSTSGSDLGKKLLEAARAGQDDEVRILMANGADVNADDTWGWTPLHLAAYQGHLEIVEVLLKNGADVNAYDYIGWTPLHLAADGHLEIVEVLLKNGADVNASDYIGDTPLHLAAHNGHLEIVEVLLKHGADVNAQDKFGKTAFDISIDNGNEDLAEILQKLNEQKLISEEDL", "values": [
      {"measurement": "binding result", "setting": "[3]", "value": "no binding"}
    ]}
  ]
}
